Test results: US6878698B2, “Anti-inflammatory androstane derivatives” (Glaxo Group Limited, priority 2001, dated 2005)
Some entries share one result that the patent states for a list of compounds.

Assay: Pharmacokinetics after intra-tracheal dry powder dosing in the pig
Format: in vivo
Details: 1 mg intra-tracheal dry powder
Protocol: Serial blood samples were taken for up to 8 h following dosing.

SMILES	time of maximum plasma concentrations after dosing
CCC(=O)O[C@]1(C(=O)SCF)[C@H](C)C[C@H]2[C@@H]3C[C@H](F)C4=CC(=O)C=C[C@]4(C)[C@@]3(F)[C@@H](O)C[C@@]21C [Fluticasone propionate, 6α, 9α-Difluoro-17α-(1-oxopropoxy)-11β-hydroxy-16α-methyl-3-oxo-androsta-1,4-diene-17β-carbothioic acid S-fluoromethyl ester, reference compound]	≤ 15 min
C[C@@H]1CC2C3C[C@H](F)C4=CC(=O)C=C[C@]4(C)[C@@]3(F)[C@@H](O)C[C@]2(C)[C@@]1(OC(=O)c1ccco1)C(=O)SCF (stereo partly drawn) [Example 1, 6α,9α-Difluoro-17α-[(2-furanylcarbonyl)oxy]-11β-hydroxy-16α-methyl-3-oxo-androsta-1,4-diene-17β-carbothioic acid S-fluoromethyl ester]	≤ 15 min
